The results in this text go back to PMC5180085.

Protein sequences, listed by entry. Tags and fused reporters are not part of them. Residues count along the entry.
UniProt P02769, 25-607: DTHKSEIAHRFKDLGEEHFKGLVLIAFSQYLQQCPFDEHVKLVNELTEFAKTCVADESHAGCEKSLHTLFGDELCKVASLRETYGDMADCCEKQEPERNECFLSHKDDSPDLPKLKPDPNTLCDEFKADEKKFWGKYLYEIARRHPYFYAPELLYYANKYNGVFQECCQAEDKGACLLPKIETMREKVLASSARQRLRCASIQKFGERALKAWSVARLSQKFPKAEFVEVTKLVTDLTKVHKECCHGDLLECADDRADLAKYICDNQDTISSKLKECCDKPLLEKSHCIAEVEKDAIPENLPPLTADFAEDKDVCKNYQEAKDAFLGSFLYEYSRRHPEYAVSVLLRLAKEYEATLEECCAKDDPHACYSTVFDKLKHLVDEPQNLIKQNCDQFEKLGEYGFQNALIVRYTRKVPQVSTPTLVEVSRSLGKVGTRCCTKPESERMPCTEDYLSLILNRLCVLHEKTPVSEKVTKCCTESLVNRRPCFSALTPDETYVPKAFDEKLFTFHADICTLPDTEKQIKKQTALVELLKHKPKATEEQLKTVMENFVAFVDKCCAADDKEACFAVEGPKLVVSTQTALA

The target of data set [1] is BSA (UniProt P02769). The data set is described as follows: mwPIFE. The following applies: 5 mM Ca2+, room temp, 30 min: BamHI 10 mM Tris-HCl pH 8, 100 mM KCl, 0.02% Triton X-100, 0.1 mg/ml BSA, 5 mM EDTA/MgCl2/CaCl2, Ku 35 mM Tris-Cl pH 7.9, 5.5% glycerol, commercial protein, label: 5' biotin strand 1, 5' Cy3 strand 2.
In data set [2] the target is T1, BamHI restriction endonuclease (UniProt P23940).
T1 sequence (looked up, limits assumed): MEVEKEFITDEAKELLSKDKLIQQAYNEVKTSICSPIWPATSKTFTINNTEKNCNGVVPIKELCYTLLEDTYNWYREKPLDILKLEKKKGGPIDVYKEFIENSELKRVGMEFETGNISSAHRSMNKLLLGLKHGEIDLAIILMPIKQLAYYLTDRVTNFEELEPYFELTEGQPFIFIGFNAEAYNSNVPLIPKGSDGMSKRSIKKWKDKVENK
The data set is described as follows: mwPIFE. The following applies: no divalent cation (5 mM EDTA), room temp, 30 min: BamHI 10 mM Tris-HCl pH 8, 100 mM KCl, 0.02% Triton X-100, 0.1 mg/ml BSA, 5 mM EDTA/MgCl2/CaCl2, Ku 35 mM Tris-Cl pH 7.9, 5.5% glycerol, commercial protein, label: 5' biotin strand 1, 5' Cy3 strand 2.

Data set [3] has as its target T1, BamHI restriction endonuclease. The data set is described as follows: competition with a labelled probe. The following applies: Ca2+, mwPIFE, 1-10x excess, room temp, 30 min: BamHI 10 mM Tris-HCl pH 8, 100 mM KCl, 0.02% Triton X-100, 0.1 mg/ml BSA, 5 mM EDTA/MgCl2/CaCl2, Ku 35 mM Tris-Cl pH 7.9, 5.5% glycerol, commercial protein.
Data set [4] concerns XPF (truncated) + ERCC1 (truncated). Briefly: competition with a labelled probe. As to conditions: mwPIFE, 1-100x excess, room temp, 30 min: BamHI 10 mM Tris-HCl pH 8, 100 mM KCl, 0.02% Triton X-100, 0.1 mg/ml BSA, recombinant protein.
The test system is the same in data set [5]. Briefly: fluorescence anisotropy. As to conditions: FA: 10 mM Tris-HCl pH 8, 10 mM NaCl, 10% glycerol, 1 mM TCEP, 50 nM DNA, 25 C, recombinant protein. In general terms: Fluorescence polarisation rises when a labelled molecule tumbles more slowly, as on binding a larger partner.
In data set [6] the test system is Ku70 + Ku80. The data set is described as follows: mwPIFE. The following applies: both ends blocked by neutravidin, negligible PIFE, internal Cy3 after nt 15 of strand 1, room temp, 30 min: BamHI 10 mM Tris-HCl pH 8, 100 mM KCl, 0.02% Triton X-100, 0.1 mg/ml BSA, 5 mM EDTA/MgCl2/CaCl2, Ku 35 mM Tris-Cl pH 7.9, 5.5% glycerol, recombinant protein, label: 5' and 3' biotin-TEG on both strands, iCy3.

For some assays here: No signal at the amounts used counts as a negative. For some assays here: At least one verdict was read from the data and is not stated in words by the source. For some assays here: For at least one entry, the source does not settle the construct or the ends of the probe. For some assays here: Weaker means in comparison with the reference protein, sequence or condition of that experiment. For some assays here: Tags and fusion partners may be left off the protein sequences shown.

As for “CACAACGACCACCTAGATAGAGCCAAGCAGTTTACGTACCGTCATTCCCTTCCACGTCATCGAGCTACGGATCCA (double strand) [1_f/1_r (BamHI site 1 bp from Cy3)]”, in data set [1], the binding result is listed as “no binding”.

In the case of “CACAACGACCACCTAGATGGATCCA (double strand) [Btn_25BamHI1_f/Cy3_25BamHI1_r]”, the binding result in data set [2] is on record as “binds more weakly”. Regarding “CACAACGACGGATCCCACCTAGAT (double strand) [B competitor]”, the binding result in data set [3] is recorded as “binds”.

For CAGCGCTCGG [10ss], the binding result in data set [4] (no inhibition, 5 mM …, Ku 35 mM Tris-Cl pH 7.9, 5.5% glycerol, single-stranded DNA) was “no binding”. Further, the Kd in data set [5] (single-stranded DNA) was 8.65 µM. On to “CAGCGCTCGGTTTTTTTTTT / CCGAGCGCT [Y/10 (3' overhang)]”, for which the binding result in data set [4] (intermediate, 5 mM EDTA/MgCl2/CaCl2, Ku 35 mM Tris-Cl pH 7.9, 5.5% glycerol) is “binds more weakly”. Moreover, in data set [5], the Kd was found to be 1.32 µM. On to “TTGCATCCTTCACAACGACCACCTAGATAG (double strand) [BtnT_15_Cy3_15_BtnT (both ends blocked)]”, for which the binding result in data set [6] is “no binding”.

One may read the Kd as the free concentration of one partner at which half of the binding sites on the other are occupied at equilibrium, for simple one-to-one binding.
